PubChem BioAssay AID1224828, NIAID – 2016

Screen: 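Find genes required for NF-kappaB p65 moving into the nucleus after LPS in mouse macrophages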 (primary screen)
System: mouse RAW264.7 G9 macrophage reporter cells (GFP-p65, Tnf promoter-mCherry)
Knock-down reagent: siRNA pool against mouse genes, 100 nM
Duration: 2 days siRNA transfection, then 40 min LPS before fixation
Challenge: LPS (Salmonella minnesota R595) at 10 ng/ml
Measured: 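Microscopy ratio of nuclear to perinuclear-ring GFP-p65 signal, scaled to the plate median; gene score is the average of two replicate robust z-scores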
Reading the numbers: p65 translocation robust z-score: higher = more nuclear NF-kappaB p65 after LPS than the plate median; nuclear/cytoplasmic p65 ratio: higher = more nuclear NF-kappaB p65
Active means: 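Called active when z exceeds 3.3 or falls under -1.56 (median of Tlr4 controls), giving activity score of at least 50; no calls for control wells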
Meaning of the calls: active = hit (p65 shift raised or lowered); inactive = no clear change
The deposit covers about 17,000 reagents; this is an unselected part. Over the whole deposit, 762 (4.5%) are marked active. 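Active calls include both raised and lowered p65 entry, mostly lowered; wells with fewer than 50 cells lack a z-score.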 The raw values are shown without normalisation. Entries without a mark were called inactive. Reagents against one gene are numbered here.

After knock-down of Syce2, the record shows p65 translocation robust z-score -1.18; nuclear/cytoplasmic p65 ratio, rep 1 = 1.34; nuclear/cytoplasmic p65 ratio, rep 2 = 1.16; low cell count flag enough cells to score.
For Gab3 the deposit lists p65 translocation robust z-score 1.84; nuclear/cytoplasmic p65 ratio, rep 1 = 1.71; nuclear/cytoplasmic p65 ratio, rep 2 = 1.58; low cell count flag enough cells to score.
After knock-down of Eif3l the results were p65 translocation robust z-score -0.96; nuclear/cytoplasmic p65 ratio, rep 1 = 1.28; nuclear/cytoplasmic p65 ratio, rep 2 = 1.29; low cell count flag enough cells to score.
Or1e29 scored p65 translocation robust z-score -1.11; nuclear/cytoplasmic p65 ratio, rep 1 = 1.35; nuclear/cytoplasmic p65 ratio, rep 2 = 1.36; low cell count flag enough cells to score.
Silencing of Or10h1 gave: p65 translocation robust z-score 0.11; nuclear/cytoplasmic p65 ratio, rep 1 = 1.53; nuclear/cytoplasmic p65 ratio, rep 2 = 1.71; low cell count flag enough cells to score.
After knock-down of Spice1, the screen gave p65 translocation robust z-score 0.91; nuclear/cytoplasmic p65 ratio, rep 1 = 1.65; nuclear/cytoplasmic p65 ratio, rep 2 = 1.73; low cell count flag enough cells to score.
Pdcl2 scored p65 translocation robust z-score -1.89 (active); nuclear/cytoplasmic p65 ratio, rep 1 = 1.18; nuclear/cytoplasmic p65 ratio, rep 2 = 1.13; low cell count flag enough cells to score.
For Psme2, the values are nuclear/cytoplasmic p65 ratio, rep 1 = 1.05; nuclear/cytoplasmic p65 ratio, rep 2 = 1.46; low cell count flag fewer than 50 cells per well; well left out of scoring.
Depletion of Zfp60 #1 came out at: p65 translocation robust z-score -1.2; nuclear/cytoplasmic p65 ratio, rep 1 = 1.24; nuclear/cytoplasmic p65 ratio, rep 2 = 1.13; low cell count flag enough cells to score.
Zfp60 #2 gave nuclear/cytoplasmic p65 ratio, rep 1 = 1.3; nuclear/cytoplasmic p65 ratio, rep 2 = 1.46; low cell count flag fewer than 50 cells per well; well left out of scoring.
Against Cd151, the entry reads p65 translocation robust z-score -0.2; nuclear/cytoplasmic p65 ratio, rep 1 = 1.42; nuclear/cytoplasmic p65 ratio, rep 2 = 1.37; low cell count flag enough cells to score.
Or10j5 showed p65 translocation robust z-score 0.2; nuclear/cytoplasmic p65 ratio, rep 1 = 1.59; nuclear/cytoplasmic p65 ratio, rep 2 = 1.49; low cell count flag enough cells to score.
With knock-down of Srgn, the record shows p65 translocation robust z-score -0.8; nuclear/cytoplasmic p65 ratio, rep 1 = 1.38; nuclear/cytoplasmic p65 ratio, rep 2 = 1.31; low cell count flag enough cells to score.
Hs3st3b1 scored nuclear/cytoplasmic p65 ratio, rep 1 = 1.39; nuclear/cytoplasmic p65 ratio, rep 2 = 1.15; low cell count flag fewer than 50 cells per well; well left out of scoring.
Against Cytl1, the values are p65 translocation robust z-score 0.2; nuclear/cytoplasmic p65 ratio, rep 1 = 1.61; nuclear/cytoplasmic p65 ratio, rep 2 = 1.67; low cell count flag enough cells to score.
Against 1700120K04Rik, the entry reads p65 translocation robust z-score -2.3 (active); nuclear/cytoplasmic p65 ratio, rep 1 = 1.2; nuclear/cytoplasmic p65 ratio, rep 2 = 1.12; low cell count flag enough cells to score.
Knock-down of Rsu1 resulted in: p65 translocation robust z-score 0.39; nuclear/cytoplasmic p65 ratio, rep 1 = 1.51; nuclear/cytoplasmic p65 ratio, rep 2 = 1.63; low cell count flag enough cells to score.
Lce1i showed nuclear/cytoplasmic p65 ratio, rep 1 = 1.47; nuclear/cytoplasmic p65 ratio, rep 2 = 1.39; low cell count flag fewer than 50 cells per well; well left out of scoring.
For Adig, the values are nuclear/cytoplasmic p65 ratio, rep 1 = 1.35; nuclear/cytoplasmic p65 ratio, rep 2 = 1.2; low cell count flag fewer than 50 cells per well; well left out of scoring.
Silencing of Rps27a gave: nuclear/cytoplasmic p65 ratio, rep 1 = 1.33; nuclear/cytoplasmic p65 ratio, rep 2 = 1.06; low cell count flag fewer than 50 cells per well; well left out of scoring.
Depletion of Golt1a gave: p65 translocation robust z-score 0.28; nuclear/cytoplasmic p65 ratio, rep 1 = 1.52; nuclear/cytoplasmic p65 ratio, rep 2 = 1.54; low cell count flag enough cells to score.
